PubChem BioAssay AID504467 (National Center for Advancing Translational Sciences (NCATS), 2011)
Hit rate of the full screen: of about 330,000 compounds, about 7,700 (2.3%) were called active. This list was built around the results that the source calls inconclusive (neither active nor inactive); the mix of calls is not that of the screen. Calls come from the whole dose curve; as a rule, active = well fitted inhibition curve with a large enough effect; inconclusive = small, poorly fitted or top-dose-only effect, or effect the other way; inactive = flat fitted curve, though single readings scatter. A potency beside an inconclusive call is a rough fit, not a confirmed value.

Assay: qHTS screen for small molecules that inhibit ELG1-dependent DNA repair in human embryonic kidney (HEK293T) cells expressing luciferase-tagged ELG1; note: nearly all actives have a fitted effect of over 55% in size
Conditions: HEK293T ELG1-luciferase reporter, luminescence, 16 h, DNA damage induced by 5-fluorouridine; series mostly up to 46.1 µM
Outline: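 Reporter activity after DNA damage by 5-fluorouridine is monitored. Compound-treated cells incubate 16 hr at 37 °C, then ONE-Glo is added for 30 min before luminescence reading.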
Potency is the fitted concentration of half-maximal effect.

Q: For COc1cc(C(=O)N/N=C/c2sc(N3CCOCC3)nc2-c2ccccc2)cc(OC)c1OC, which Potency is on record?
A: active: 11.6 µM

Q: With C=CCN(C(=O)CNC(=O)c1cccs1)C(C(=O)NC1CCCCC1)c1cccnc1 (stereo unspecified) as the molecule, how does the Potency read?
A: inactive

Q: Which Potency does the source give for NCCCCCc1nnc(SC/C=C/c2ccccc2)o1 here?
A: inactive

Q: Which Potency does the source give for CC1=CC(=C2C(=O)c3ccccc3C2=O)C=C(C)N1Cc1ccco1 here?
A: inconclusive: 2.31 µM [activator, full curve, poor fit]

Q: Which Potency does the source give for Cc1cc(OC(=O)c2cccc(C(F)(F)F)c2)c([N+](=O)[O-])c(=O)[nH]1 here?
A: inactive

Q: Which Potency does the source give for Cc1ccc(C)c(NS(=O)(=O)c2ccc3c(c2)Cc2cc(S(=O)(=O)Nc4cc(C)ccc4C)ccc2-3)c1 here?
A: inconclusive: 29.1 µM [activator, single point]

Q: For CC(=O)Oc1ccc(Nc2ccccc2)cc1, which Potency is on record?
A: inactive

Q: For CC1CCN(c2ncnc3ccccc23)CC1, which Potency is on record?
A: inconclusive: 4.61 µM [inhibitor, full curve]

Q: Which Potency does the source give for Cc1ccc(NC(=O)c2cccs2)cc1S(=O)(=O)Nc1cccc(Cl)c1 here?
A: inconclusive: 29.1 µM [inhibitor, single point]

Q: For CC(=O)Nc1ccc(S(=O)(=O)N2CCN(c3ccccn3)CC2)cc1, which Potency is on record?
A: inactive

Q: Which Potency does the source give for O=C(N/N=C/c1ccccc1O)c1ccc2c(c1)OCO2 here?
A: inconclusive: 8.2 µM [activator, partial curve]

Q: With CNc1nnc(-c2cccc(N(C)C)c2)s1 as the molecule, how does the Potency read?
A: inconclusive: 16.4 µM [activator, partial curve]

Q: For CCc1cccc(C)c1NC(=O)COC(=O)c1c2c(nc3ccccc13)/C(=C\c1cccs1)CCC2, which Potency is on record?
A: active: 14.6 µM

Q: For CCSc1ccc(-c2ccco2)nn1, which Potency is on record?
A: inconclusive: 4.11 µM [activator, single point]

Q: With COc1ccccc1CNc1ncccc1[N+](=O)[O-] as the molecule, how does the Potency read?
A: inactive

Q: With COc1ccc(NC(C)=O)cc1S(=O)(=O)Nc1ccc(OCc2ccccc2)cc1 as the molecule, how does the Potency read?
A: inconclusive: 29.1 µM [inhibitor, single point]

Q: Which Potency does the source give for O=C(Nc1cccc(Cl)c1)C1COc2ccccc2O1 (stereo unspecified) here?
A: inconclusive: 29.1 µM [activator, single point]

Q: With CCN(CC)S(=O)(=O)c1ccc(C(=O)Nc2ccc3c(c2)OCO3)cc1 as the molecule, how does the Potency read?
A: inconclusive: 18.3 µM [inhibitor, single point]

Q: Which Potency does the source give for O=C(Nc1ccc(O)cc1)c1c(O)c2c([nH]c1=O)CCCC2 here?
A: inconclusive: 2.31 µM [activator, full curve]

Q: Which Potency does the source give for CCN(CC)CCCNC(=O)C1c2ccccc2C(=O)N(C)C1c1ccc(OC)cc1 (stereo unspecified) here?
A: inactive

Q: With CC(=O)N1CCOc2ccc(S(=O)(=O)N3CCC(C(=O)Nc4ccc(C)c(C)c4)CC3)cc21 as the molecule, how does the Potency read?
A: inactive

Q: With CCc1nc(SCC(=O)Nc2cc(C)on2)c2c(C)c(C)sc2n1 as the molecule, how does the Potency read?
A: inactive

Q: For CCCC(=O)Nc1c(-c2cccs2)c(=O)c2ccccc2n1CC, which Potency is on record?
A: inactive

Q: With COCCCNC(=O)/C(C#N)=C/c1cccc(NC(=O)c2ccccc2Cl)c1 as the molecule, how does the Potency read?
A: inactive

Q: For COc1ccc(CNC(=O)C(c2ccncc2)N(C(=O)Cc2cccs2)c2ccc(C)cc2)cc1 (stereo unspecified), which Potency is on record?
A: inactive

Q: Which Potency does the source give for CCOc1ccc(NC(=O)C(=O)N/N=C\c2ccc(CNS(=O)(=O)c3ccccc3)o2)cc1 here?
A: inconclusive: 8.2 µM [activator, partial curve]

Q: Which Potency does the source give for Cc1sc(NC(=O)CN(Cc2ccccc2)C(=O)C(C)C)c(C(N)=O)c1C here?
A: inconclusive: 5.8 µM [inhibitor, partial curve, poor fit]

Q: With NS(=O)(=O)c1ccc(CCNC(=O)c2cccc(S(=O)(=O)N3CCCC3)c2)cc1 as the molecule, how does the Potency read?
A: inactive

Q: For COc1ccc(NC(=O)CCOc2ccc(C)cc2)cc1S(=O)(=O)N1CCCCC1, which Potency is on record?
A: inconclusive: 8.2 µM [inhibitor, partial curve, poor fit]

Q: Which Potency does the source give for COc1ccc(N2CCN(C(=O)c3cc(=O)c4ccc(C)cc4o3)CC2)cc1 here?
A: inconclusive: 29.1 µM [inhibitor, single point]

Q: For Cc1occc1C(=O)O/N=C(\N)c1ccc(Cl)cc1, which Potency is on record?
A: inconclusive: 18.3 µM [activator, partial curve]

Q: For Cc1cc(-c2nnc(SCC(=O)Nc3ccccc3Cl)n2C)no1, which Potency is on record?
A: inconclusive: 25.9 µM [inhibitor, single point]

Q: Which Potency does the source give for CCC1CCc2sc(C(=O)N3CCCN(C)CC3)cc2C1 (stereo unspecified) here?
A: inconclusive: 16.4 µM [activator, single point]

Q: For COc1ccc(CCNC(=O)c2cc3c(=O)n4cccc(C)c4nc3n(CC3CCCO3)c2=N)cc1 (stereo unspecified), which Potency is on record?
A: inconclusive: 14.6 µM [inhibitor, partial curve, poor fit]

Q: Which Potency does the source give for O=C(NC(=S)Nc1ccccc1N1CCCC1)c1ccc(-c2cccc([N+](=O)[O-])c2)o1 here?
A: active: 14.6 µM

Q: With COc1ccc(NC(=O)CCNC(=O)c2ccc([N+](=O)[O-])cc2)cc1S(=O)(=O)N1CCOCC1 as the molecule, how does the Potency read?
A: inconclusive: 8.2 µM [inhibitor, partial curve, poor fit]

Q: For Nc1c(-c2ccc(Cl)cc2)nnn1-c1ccccc1, which Potency is on record?
A: inconclusive: 9.2 µM [activator, partial curve, poor fit]

Q: With CC(OC(=O)c1cc(S(=O)(=O)N2CCOCC2)ccc1Br)C(=O)N1CCOCC1 (stereo unspecified) as the molecule, how does the Potency read?
A: inactive

Q: For CC(C)(C)c1ccc(/C=N/NC(=O)C2CCCC2)cc1, which Potency is on record?
A: inconclusive: 11.6 µM [activator, partial curve]

Q: For Cc1nc2ccc(NC(=O)c3ccccc3)cc2s1, which Potency is on record?
A: inconclusive: 14.6 µM [activator, partial curve]

Q: Which Potency does the source give for CC(C)[C@H](NC(=O)c1ccco1)C(=O)OCC(=O)Nc1ccccc1OC(F)F here?
A: inactive

Q: Which Potency does the source give for CCOc1ccc(C(NC(=O)/C=C/c2ccco2)c2ccc(OC)c(OC)c2)cc1 (stereo unspecified) here?
A: inconclusive: 25.9 µM [inhibitor, partial curve, poor fit]

Q: With Cc1ccccc1Cn1cnc2c([N+](=O)[O-])c(C)c(C)cc21 as the molecule, how does the Potency read?
A: inconclusive: 22.4 µM [inhibitor, partial curve, poor fit]

Q: For Cc1cccc(N(Cc2ccccc2)C(=O)CSC(C)C(=O)Nc2cc(C)on2)c1 (stereo unspecified), which Potency is on record?
A: inactive

Q: For O=C(c1ccccc1)N1CCC(CC2CC(c3ccc(Cl)cc3)=NO2)(C(=O)NCC2CCCCC2)CC1 (stereo unspecified), which Potency is on record?
A: inconclusive: 25.9 µM [inhibitor, single point]

Q: With CCCn1c(COc2ccccc2)nc2ccccc21 as the molecule, how does the Potency read?
A: inactive

Q: With CCn1c(CSCc2ccc(F)cc2)nnc1SCC(=O)N1CCN(c2ccccc2)CC1 as the molecule, how does the Potency read?
A: active: 13 µM

Q: Which Potency does the source give for C=CCN(C(=O)C1=NN(C2CCS(=O)(=O)C2)C(=O)CC1)c1nc(-c2ccc([N+](=O)[O-])cc2)cs1 (stereo unspecified) here?
A: inconclusive: 4.11 µM [activator, single point]

Q: With O=C(CCl)N=c1sccn1Cc1ccc(Cl)cc1Cl as the molecule, how does the Potency read?
A: inconclusive: 29.1 µM [activator, single point]

Q: Which Potency does the source give for C=C(C)Cn1c(N(CCO)Cc2ccccc2)nc2c1c(=O)[nH]c(=O)n2C here?
A: inactive

Q: For O=S(=O)(Cc1ccccc1)N1CCC(c2nc(-c3cccs3)no2)CC1, which Potency is on record?
A: inactive

Q: Which Potency does the source give for COc1ccc(/C=C/C(=O)c2ccc[nH]2)c(OC)c1OC here?
A: inconclusive: 16.4 µM [activator, partial curve]

Q: For O=C(NCc1cccc(F)c1)c1cccc2c1C(=O)c1ccc(Cl)cc1S2(=O)=O, which Potency is on record?
A: inactive

Q: For ClCc1nnc(-c2ccccc2)o1, which Potency is on record?
A: inconclusive: 13 µM [inhibitor, partial curve]

Q: With O=C(c1cccc(C(F)(F)F)c1)N1CCC(O)(CS(=O)(=O)Cc2ccc(Cl)cc2)CC1 as the molecule, how does the Potency read?
A: inconclusive: 18.4 µM [inhibitor, partial curve, poor fit]

Q: With O=S(=O)(c1cccc2c(S(=O)(=O)N3CCCC3)cccc12)N1CCCC1 as the molecule, how does the Potency read?
A: inconclusive: 32.6 µM [inhibitor, partial curve, poor fit]

Q: Which Potency does the source give for CS(=O)(=O)N(CC(=O)N1CCN(Cc2ccccc2)CC1)c1ccccc1Br here?
A: inactive

Q: For CCC1=NN2C(=N)/C(=C\c3cccn3-c3ccc(C)c(C)c3)C(=O)N=C2S1, which Potency is on record?
A: active: 18.3 µM

Q: With CC1CCN(C(=O)CCNS(=O)(=O)c2ccccc2)CC1 as the molecule, how does the Potency read?
A: inconclusive: 14.6 µM [activator, partial curve]

Q: Which Potency does the source give for NC(=O)c1c(NC(=O)c2ccncc2)sc2c1CCCCCC2 here?
A: inconclusive: 20 µM [inhibitor, partial curve, poor fit]

Q: With Cc1ccc(O)c(C2=Nc3ccccc3N=C(c3ccco3)C2)c1 as the molecule, how does the Potency read?
A: inactive

Q: With CC1CCc2c(sc(NC(=O)c3cccn3C)c2C(N)=O)C1 (stereo unspecified) as the molecule, how does the Potency read?
A: inconclusive: 2.59 µM [activator, full curve]

Q: With CN(Cc1ccccc1)C(=O)COC(=O)c1cc(=O)[nH]c2ccccc12 as the molecule, how does the Potency read?
A: inconclusive: 16.4 µM [activator, single point]

Q: For Cc1nn(Cc2c(F)c(F)c(F)c(F)c2F)c(C)c1NC(=O)c1cccc(COc2ccccc2Cl)c1, which Potency is on record?
A: inconclusive: 2.06 µM [activator, full curve]

Q: Which Potency does the source give for CCSc1nnc([C@H](Cc2ccccc2)NC(=O)OC(C)(C)C)o1 here?
A: inactive

Q: With COc1ccc(NC(=O)c2ccc(Cl)c(S(=O)(=O)NCC3CCCO3)c2)c(OC)c1 (stereo unspecified) as the molecule, how does the Potency read?
A: inactive

Q: With CC(=O)C1=C(C)NC(SCC(N)=O)=C(C#N)C1CC(C)C (stereo unspecified) as the molecule, how does the Potency read?
A: inactive

Q: With Cc1ccc(-c2nc(CN3CCCCC3CCN3CCCC3=O)c(C)o2)o1 (stereo unspecified) as the molecule, how does the Potency read?
A: inactive

Q: Which Potency does the source give for COc1cc2c(cc1NC(=O)CN1C(=O)NC3(CCc4ccccc43)C1=O)oc1ccccc12 (stereo unspecified) here?
A: inconclusive: 20.6 µM [inhibitor, single point]

Q: Which Potency does the source give for C=CCN(Cc1ccc(Cl)s1)C(=O)c1ccc(F)c(S(=O)(=O)N2CCOCC2)c1 here?
A: inconclusive: 20.6 µM [inhibitor, partial curve]

Q: For O=C1NC(=S)S/C1=C\c1cc2ccccc2nc1N1CCCCC1, which Potency is on record?
A: active: 16.4 µM
